Data taken from patent US20250283871A1, “COMPOSITIONS AND METHODS FOR MODULATING THE INTERACTION BETWEEN SS18-SSX FUSION ONCOPROTEIN AND NUCLEOSOMES” (Dana-Farber Cancer Institute, Inc., priority 2020, published 2025).

B1: IRS4 (protein, UniProt O14654 1-1257, looked up)
Insulin receptor substrate 4: MASCSFTRDQATRRLRGAAAAAAAALAAVVTTPLLSSGTPTALIGTGSSCPGAMWLSTATGSRSDSESEEEDLPVGEEVCKRGYLRKQKHGHRRYFVLKLETADAPARLEYYENARKFRHSVRAAAAAAAAAASGAAIPPLIPPRRVITLYQCFSVSQRADARYRHLIALFTQDEYFAMVAENESEQESWYLLLSRLILESKRRRCGTLGAQPDGEPAALAAAAAAEPPFYKDVWQVIVKPRGLGHRKELSGVFRLCLTDEEVVFVRLNTEVASVVVQLLSIRRCGHSEQYFFLEVGRSTVIGPGELWMQVDDCVVAQNMHELFLEKMRALCADEYRARCRSYSISIGAHLLTLLSARRHLGLVPLEPGGWLRRSRFEQFCHLRAIGDGEDEMLFTRRFVTPSEPVAHSRRGRLHLPRGRRSRRAVSVPASFFRRLAPSPARPRHPAEAPNNGARLSSEVSGSGSGNFGEEGNPQGKEDQEGSGGDYMPMNNWGSGNGRGSGGGQGSNGQGSSSHSSGGNQCSGEGQGSRGGQGSNGQGSGGNQCSRDGQGTAGGHGSGGGQRPGGGHGSGGGQGPGDGHGSGGGKNSGGGKGSGSGKGSDGDGERGKSLKKRSYFGKLTQSKQQQMPPPPPPPPPPPPAGGTGGKGKSGGRFRLYFCVDRGATKECKEAKEVKDAEIPEGAARGPHRARAFDEDEDDPYVPMRPGVATPLVSSSDYMPMAPQNVSASKKRHSRSPFEDSRGYMMMFPRVSPPPAPSPPKAPDTNKEDDSKDNDSESDYMFMAPGAGAIPKNPRNPQGGSSSKSWSSYFSLPNPFRSSPLGQNDNSEYVPMLPGKFLGRGLDKEVSYNWDPKDAASKPSGEGSFSKPGDGGSPSKPSDHEPPKNKAKRPNRLSFITKGYKIKPKPQKPTHEQREADSSSDYVNMDFTKRESNTPAPSTQGLPDSWGIIAEPRQSAFSNYVNVEFGVPFPNPANDLSDLLRAIPRANPLSLDSARWPLPPLPLSATGSNAIEEEGDYIEVIFNSAMTPAMALADSAIRYDAETGRIYVVDPFSECCMDISLSPSRCSEPPPVARLLQEEEQERRRPQSRSQSFFAAARAAVSAFPTDSLERDLSPSSAPAVASAAEPTLALSQVVAAASALAAAPGIGAAAAAAGFDSASARWFQPVANAADAEAVRGAQDVAGGSNPGAHNPSANLARGDNQAGGAAAAAAAPEPPPRSRRVPRPPEREDSDNDDDTHVRMDFARRDNQFDSPKRGR
B2: CAND1 (protein, UniProt Q86VP6 2-1230, looked up)
Cullin-associated …: ASASYHISNLLEKMTSSDKDFRFMATNDLMTELQKDSIKLDDDSERKVVKMILKLLEDKNGEVQNLAVKCLGPLVSKVKEYQVETIVDTLCTNMLSDKEQLRDISSIGLKTVIGELPPASSGSALAANVCKKITGRLTSAIAKQEDVSVQLEALDIMADMLSRQGGLLVNFHPSILTCLLPQLTSPRLAVRKRTIIALGHLVMSCGNIVFVDLIEHLLSELSKNDSMSTTRTYIQCIAAISRQAGHRIGEYLEKIIPLVVKFCNVDDDELREYCIQAFESFVRRCPKEVYPHVSTIINICLKYLTYDPNYNYDDEDEDENAMDADGGDDDDQGSDDEYSDDDDMSWKVRRAAAKCLDAVVSTRHEMLPEFYKTVSPALISRFKEREENVKADVFHAYLSLLKQTRPVQSWLCDPDAMEQGETPLTMLQSQVPNIVKALHKQMKEKSVKTRQCCFNMLTELVNVLPGALTQHIPVLVPGIIFSLNDKSSSSNLKIDALSCLYVILCNHSPQVFHPHVQALVPPVVACVGDPFYKITSEALLVTQQLVKVIRPLDQPSSFDATPYIKDLFTCTIKRLKAADIDQEVKERAISCMGQIICNLGDNLGSDLPNTLQIFLERLKNEITRLTTVKALTLIAGSPLKIDLRPVLGEGVPILASFLRKNQRALKLGTLSALDILIKNYSDSLTAAMIDAVLDELPPLISESDMHVSQMAISFLTTLAKVYPSSLSKISGSILNELIGLVRSPLLQGGALSAMLDFFQALVVTGTNNLGYMDLLRMLTGPVYSQSTALTHKQSYYSIAKCVAALTRACPKEGPAVVGQFIQDVKNSRSTDSIRLLALLSLGEVGHHIDLSGQLELKSVILEAFSSPSEEVKSAASYALGSISVGNLPEYLPFVLQEITSQPKRQYLLLHSLKEIISSASVVGLKPYVENIWALLLKHCECAEEGTRNVVAECLGKLTLIDPETLLPRLKGYLISGSSYARSSVVTAVKFTISDHPQPIDPLLKNCIGDFLKTLEDPDLNVRRVALVTFNSAAHNKPSLIRDLLDTVLPHLYNETKVRKELIREVEMGPFKHTVDDGLDIRKAAFECMYTLLDSCLDRLDIFEFLNHVEDGLKDHYDIKMLTFLMLVRLSTLCPSAVLQRLDRLVEPLRATCTTKVKANSVKQEFEKQDELKRSAMRAVAALLTIPEAEKSPLMSEFQSQISSNPELAAIFESIQKDSSSTNLESMDTS
B3: CDC42EP1 (protein, UniProt Q00587 1-391, looked up)
Cdc42 effector protein 1: MPGPQGGRGAATMSLGKLSPVGWVSSSQGKRRLTADMISHPLGDFRHTMHVGRGGDVFGDTSFLSNHGGSSGSTHRSPRSFLAKKLQLVRRVGAPPRRMASPPAPSPAPPAISPIIKNAISLPQLNQAAYDSLVVGKLSFDSSPTSSTDGHSSYGLDSGFCTISRLPRSEKPHDRDRDGSFPSEPGLRRSDSLLSFRLDLDLGPSLLSELLGVMSLPEAPAAETPAPAANPPAPTANPTGPAANPPATTANPPAPAANPSAPAATPTGPAANPPAPAASSTPHGHCPNGVTAGLGPVAEVKSSPVGGGPRGPAGPALGRHWGAGWDGGHHYPEMDARQERVEVLPQARASWESLDEEWRAPQAGSRTPVPSTVQANTFEFADAEEDDEVKV
B4: SLC33A1 (protein)
chain: MSPTISHKDSSRQRRPGNFSHSLDMKSGPLPPGGWDDSHLDSAGREGDREALLGDTGTGDFLKAPQSFRAELSSILLLLFLYVLQGIPLGLAGSIPLILQSKNVSYTDQAFFSFVFWPFSLKLLWAPLVDAVYVKNFGRRKSWLVPTQYILGLFMIYLSTQVDRLLGNTDDRTPDVIALTVAFFLFEFLAATQDIAVDGWALTMLSRENVGYASTCNSVGQTAGYFLGNVLFLALESADFCNKYLRFQPQPRGIVTLSDFLFFWGTVFLITTTLVALLKKENEVSVVKEETQGITDTYKLLFAIIKMPAVLTFCLLILTAKIGFSAADAVTGLKLVEEGVPKEHLALLAVPMVPLQIILPLIISKYTAGPQPLNTFYKAMPYRLLLGLEYALLVWWTPKVEHQGGFPIYYYIVVLLSYALHQVTVYSMYVSIMAFNAKVSDPLIGGTYMTLLNTVSNLGGNWPSTVALWLVDPLTVKECVGASNQNCRTPDAVELCKKLGGSCVTALDGYYVESIICVFIGFGWWFFLGPKFKKLQDEGSSSWKCKRNN
B5: TMEM126A (protein, UniProt Q9H061 1-195, looked up)
Transmembrane protein 126A: MENHKSNNKENITIVDISRKINQLPEAERNLLENGSVYVGLNAALCGLIANSLFRRILNVTKARIAAGLPMAGIPFLTTDLTYRCFVSFPLNTGDLDCETCTITRSGLTGLVIGGLYPVFLAIPVNGGLAARYQSALLPHKGNILSYWIRTSKPVFRKMLFPILLQTMFSAYLGSEQYKLLIKALQLSEPGKEIH
B6: DGKE (protein, UniProt P52429 1-567, looked up)
Diacylglycerol kinase epsilon: MEAERRPAPGSPSEGLFADGHLILWTLCSVLLPVFITFWCSLQRSRRQLHRRDIFRKSKHGWRDTDLFSQPTYCCVCAQHILQGAFCDCCGLRVDEGCLRKADKRFQCKEIMLKNDTKVLDAMPHHWIRGNVPLCSYCMVCKQQCGCQPKLCDYRCIWCQKTVHDECMKNSLKNEKCDFGEFKNLIIPPSYLTSINQMRKDKKTDYEVLASKLGKQWTPLIILANSRSGTNMGEGLLGEFRILLNPVQVFDVTKTPPIKALQLCTLLPYYSARVLVCGGDGTVGWVLDAVDDMKIKGQEKYIPQVAVLPLGTGNDLSNTLGWGTGYAGEIPVAQVLRNVMEADGIKLDRWKVQVTNKGYYNLRKPKEFTMNNYFSVGPDALMALNFHAHREKAPSLFSSRILNKAVYLFYGTKDCLVQECKDLNKKVELELDGERVALPSLEGIIVLNIGYWGGGCRLWEGMGDETYPLARHDDGLLEVVGVYGSFHCAQIQVKLANPFRIGQAHTVRLILKCSMMPMQVDGEPWAQGPCTVTITHKTHAMMLYFSGEQTDDDISSTSDQEDIKATE
B7: ALDH18A1 (protein, UniProt P54886 1-795, looked up)
Delta-1-pyrroline-5-carboxylat …: MLSQVYRCGFQPFNQHLLPWVKCTTVFRSHCIQPSVIRHVRSWSNIPFITVPLSRTHGKSFAHRSELKHAKRIVVKLGSAVVTRGDECGLALGRLASIVEQVSVLQNQGREMMLVTSGAVAFGKQRLRHEILLSQSVRQALHSGQNQLKEMAIPVLEARACAAAGQSGLMALYEAMFTQYSICAAQILVTNLDFHDEQKRRNLNGTLHELLRMNIVPIVNTNDAVVPPAEPNSDLQGVNVISVKDNDSLAARLAVEMKTDLLIVLSDVEGLFDSPPGSDDAKLIDIFYPGDQQSVTFGTKSRVGMGGMEAKVKAALWALQGGTSVVIANGTHPKVSGHVITDIVEGKKVGTFFSEVKPAGPTVEQQGEMARSGGRMLATLEPEQRAEIIHHLADLLTDQRDEILLANKKDLEEAEGRLAAPLLKRLSLSTSKLNSLAIGLRQIAASSQDSVGRVLRRTRIAKNLELEQVTVPIGVLLVIFESRPDCLPQVAALAIASGNGLLLKGGKEAAHSNRILHLLTQEALSIHGVKEAVQLVNTREEVEDLCRLDKMIDLIIPRGSSQLVRDIQKAAKGIPVMGHSEGICHMYVDSEASVDKVTRLVRDSKCEYPAACNALETLLIHRDLLRTPLFDQIIDMLRVEQVKIHAGPKFASYLTFSPSEVKSLRTEYGDLELCIEVVDNVQDAIDHIHKYGSSHTDVIVTEDENTAEFFLQHVDSACVFWNASTRFSDGYRFGLGAEVGISTSRIHARGPVGLEGLLTTKWLLRGKDHVVSDFSEHGSLKYLHENLPIPQRNTN

system: BAF complex subunits and histone proteins; test: Mass spectrometry proteomics of purified HA-SS18 WT and HA-SS18-SSX1 complexes (Tables 5A-5E); design: species or system human; conditions: HA-SS18SSX1_NE_peptides: protein co-purified with HA-SS18-SSX1 BAF complexes from soluble nuclear extract (NE), HEK-293T cells

Molecule	Total (peptides)	Unique (peptides)
B1	2	2
B2	2	2
B3	2	2
B4	2	2
B5	2	2
B6	2	2
B7	2	2

same assay, conditions: HA-SS18WT_NE_peptides: HA-SS18 WT complexes purified from nuclear extract (NE), HEK-293T; label = protein identified (Gene Symbol)

Molecule	Total (peptides)	Unique (peptides)
B4	3	3

same assay, conditions: HA-SS18WT_NE_peptides: proteins co-purified with HA-SS18 WT from nuclear extract (NE), HEK-293T

Molecule	Total (peptides)	Unique (peptides)
B1	2	2
B2	1	1
B3	2	2
B5	2	2
B6	1	1
